The supplement of paper PMC7646827
Single values are uncertain, as repeats are few or missing.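 All cells are established human bladder cancer lines, one derived from a patient-derived xenograft. A luminescent ATP assay measured viability as percent inhibition relative to vehicle across seven dilutions. The paper rates scores above 59 very active, 30–59 active, 21–29 semi-active, 9–20 low active, below 9 inactive.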

Experiments:
Experiment in all cases: drug sensitivity score DSS3 (score 0-100); higher = more sensitive; extreme values may be limits of the assay
Settings in all cases: culture: 3D, ultra-low attachment; treatment time: 5 days
5637 = tested on: 5637
BC8149 = tested on: BC8149
J82 = tested on: J82
SCaBER = tested on: SCaBER
SW780 = tested on: SW780
T-24 = tested on: T-24
TCCSUP = tested on: TCCSUP
UM-UC-12 = tested on: UM-UC-12
UM-UC-14 = tested on: UM-UC-14
UM-UC-15 = tested on: UM-UC-15
UM-UC-17 = tested on: UM-UC-17
UM-UC-18 = tested on: UM-UC-18
UM-UC-1 = tested on: UM-UC-1
UM-UC-3 = tested on: UM-UC-3
UM-UC-5 = tested on: UM-UC-5
UM-UC-6 = tested on: UM-UC-6
UM-UC-9 = tested on: UM-UC-9

SMILES | drug sensitivity score DSS3 5637 | drug sensitivity score DSS3 (BC8149) | drug sensitivity score DSS3 (J82) | drug sensitivity score DSS3 (SCaBER) | drug sensitivity score DSS3 (SW780) | drug sensitivity score DSS3 (T-24) | drug sensitivity score DSS3 (TCCSUP) | drug sensitivity score DSS3 (UM-UC-12) | drug sensitivity score DSS3 (UM-UC-14) | drug sensitivity score DSS3 (UM-UC-15) | drug sensitivity score DSS3 (UM-UC-17) | drug sensitivity score DSS3 (UM-UC-18) | drug sensitivity score DSS3 (UM-UC-1) | drug sensitivity score DSS3 (UM-UC-3) | drug sensitivity score DSS3 (UM-UC-5) | drug sensitivity score DSS3 (UM-UC-6) | drug sensitivity score DSS3 (UM-UC-9)
O=C(NC[C@H]1CN(c2ccc(N3CCOCC3=O)cc2)C(=O)O1)c1ccc(Cl)s1 [Rivaroxaban] (max dose 10000 nM) | 0 | 0 | 0 | 0 | 0 | 0 | 0 | 0 | 0 | 0.379 | 0 | 0 | 0 | 0 | 0 | 0 | 0
Cc1cc(C(C)Nc2ccccc2)c2nc(N3CCOCC3)cc(=O)n2c1 (centres undefined) [TGX-221] (max dose 10000 nM) | 0.858 | 0.346 | 0 | 0 | 0 | 0 | 2.42 | 0 | 0 | 0 | 0 | 0 | 0 | 0 | 0 | 0 | 0
COc1cc(Nc2c(C#N)cnc3cc(OCCCN4CCN(C)CC4)c(OC)cc23)c(Cl)cc1Cl [Bosutinib, Bosutinib (SKI-606)] (max dose 10000 nM) | 3.13 | 0 | 0 | 3.91 | 0 | 3.2 | 3.06 | 21.3 | 0.653 | 0 | 0.195 | 0.593 | 0 | 1.04 | 0 | 0 | 0
C[C@]12CCC(=O)C(O)=C1CC[C@@H]1[C@@H]2CC[C@]2(C)C(=O)CC[C@@H]12 [Formestane] (max dose 10000 nM) | 0 | 1.55 | 0 | 0 | 0 | 0 | 2.38 | 0 | 0.77 | 0 | 0.112 | 0.333 | 0 | 0.689 | 0 | 0 | 0
CNCCN(C)Cc1c[nH]nc1-c1ccc(O[C@H]2C[C@H](OCCC3CCOCC3)C2)cc1 (max dose 10000 nM) | 0 | 0 | 0 | 0 | 0 | 0 | 0 | 0 | 0 | 0 | 0 | 0 | 0 | 0 | 0 | 0 | 0
Cc1ccc(-n2nc(C(C)(C)C)cc2NC(=O)Nc2ccc(OCCN3CCOCC3)c3ccccc23)cc1 [BIRB 796 (Doramapimod)] (max dose 10000 nM) | 0 | 0.942 | 0 | 0.102 | 0.782 | 0 | 0.343 | 0 | 0 | 0 | 0 | 0 | 0 | 0 | 0.122 | 0.336 | 0
Cc1nn(C)c(COc2ccc(N3CCN(S(=O)(=O)N(C)C)CC3)cc2)c1-c1cccc2c(CCCOc3cccc4ccccc34)c(C(=O)O)n(CCN3CCOCC3)c12 (max dose 10000 nM) | 0 | 0 | 0 | 0 | 0 | 0 | 0 | 0 | 0 | 0 | 0 | 0 | 0 | 0 | 0 | 0 | 0
Nc1ccc2ncnc(NCCc3ccc(Oc4ccccc4)cc3)c2c1 [QNZ (EVP4593)] (max dose 10000 nM) | 6.6 | 0 | 0 | 2.35 | 2.09 | 0 | 5.57 | 2.68 | 12.8 | 0.245 | 20.1 | 0 | 22.8 | 0 | 6.74 | 2.54 | 14.2
CCC(CC)CC1(C(=O)Nc2ccccc2SC(=O)C(C)C)CCCCC1 (max dose 10000 nM) | – | 0 | 0 | 0 | 0 | 0 | 1.69 | 0 | 0.238 | 0 | 2.27 | 0 | 0 | 2.72 | 0 | 0 | 0
Oc1cccc(-c2nc(N3CCOCC3)c3oc4ncccc4c3n2)c1 [PI-103] (max dose 10000 nM) | – | 37.5 | 0 | 11.9 | 0 | 0 | – | 38.8 | 0 | 0 | 0 | 6.93 | 6.43 | 38.5 | 0 | 0 | 0
Cn1c(Nc2ccc(C(F)(F)F)cc2)nc2cc(Oc3ccnc(-c4ncc(C(F)(F)F)[nH]4)c3)ccc21 [RAF265 (CHIR-265)] (max dose 10000 nM) | – | 10.4 | 0.891 | 0 | 0 | 0 | 3.86 | 0.857 | 3.7 | 0 | 0 | 0.0482 | 1.64 | 1.34 | 2.07 | 4.19 | 0
Cn1cncc1[C@@](N)(c1ccc(Cl)cc1)c1ccc2c(c1)c(-c1cccc(Cl)c1)cc(=O)n2C [Tipifarnib] (max dose 10000 nM) | – | 0.0116 | 0 | 4.44 | 0 | 15.6 | 8.32 | 0.311 | 1.66 | 0 | 5.01 | 4.24 | 5.11 | 3.14 | 0.000196 | 7.09 | 0

2 of the compounds above, comma-delimited.
SMILES,drug sensitivity score DSS3 5637,drug sensitivity score DSS3 (BC8149),drug sensitivity score DSS3 (J82),drug sensitivity score DSS3 (SCaBER),drug sensitivity score DSS3 (SW780),drug sensitivity score DSS3 (T-24),drug sensitivity score DSS3 (TCCSUP),drug sensitivity score DSS3 (UM-UC-12),drug sensitivity score DSS3 (UM-UC-14),drug sensitivity score DSS3 (UM-UC-15),drug sensitivity score DSS3 (UM-UC-17),drug sensitivity score DSS3 (UM-UC-18),drug sensitivity score DSS3 (UM-UC-1),drug sensitivity score DSS3 (UM-UC-3),drug sensitivity score DSS3 (UM-UC-5),drug sensitivity score DSS3 (UM-UC-6),drug sensitivity score DSS3 (UM-UC-9)
Nc1ccc2ncnc(NCCc3ccc(Oc4ccccc4)cc3)c2c1 [QNZ (EVP4593)] (max dose 10000 nM),6.6,0,0,2.35,2.09,0,5.57,2.68,12.8,0.245,20.1,0,22.8,0,6.74,2.54,14.2
CCC(CC)CC1(C(=O)Nc2ccccc2SC(=O)C(C)C)CCCCC1 (max dose 10000 nM),–,0,0,0,0,0,1.69,0,0.238,0,2.27,0,0,2.72,0,0,0
